Values from PubChem BioAssay AID1259308 (NCATS, 2017)
Purpose: 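Knock-downs that increase output of a recombinant reporter protein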 (primary screen). Cell system: human HEK293 embryonic kidney cells stably expressing firefly luciferase (HEK-CMV-Luc2-Hygro). Knock-down reagent: single siRNA against human genes, 0.8 pmol siRNA per well. Duration: 72 h. Read-out: 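Reporter luminescence and viable-cell signal on separate replicate plates, given as percent of non-targeting control and median/MAD z-scores, plus per-cell luciferase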. Direction: total luciferase, z-score and total luciferase, % of control: higher = more reporter protein produced; luciferase per cell, z-score: higher = more reporter output per viable cell. Active means: 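Active when the median/MAD z-score for overall luciferase is greater than 3; a gene was taken forward for validation with new siRNAs if at least two of its three siRNAs passed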. Calls: active = raised luciferase; inactive = no rise.
In all, the deposit lists about 59,000 reagents; below is a part drawn at random. Of all reagents, about 1,510 (2.6%) were called active. 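Calls use total luciferase alone and ignore viability, so some active siRNAs may act by altering cell number.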 Entries without a mark were called inactive. Reagents against one gene are numbered here. Further read-outs or replicates are left out here. Reagent sequences are not shown.

| gene | reagent | total luciferase, z-score | total luciferase, % of control | luciferase per cell, z-score |
| --- | --- | --- | --- | --- |
| C1orf210 (chromosome 1 open reading frame 210) | 1 | 2.4 | 130 | 2 |
| C1orf210 (chromosome 1 open reading frame 210) | 2 | 0.101 | 83.9 | -0.102 |
| C1orf210 (chromosome 1 open reading frame 210) | 3 | 0.163 | 85.1 | 0.228 |
| CATSPER2 (cation channel sperm associated 2) | 1 | 0.224 | 86.4 | 0.199 |
| CATSPER2 (cation channel sperm associated 2) | 2 | -0.874 | 64.5 | -1.13 |
| CATSPER2 (cation channel sperm associated 2) | 3 | -0.135 | 79.2 | -0.513 |
| ANKRD54 (ankyrin repeat domain 54) | 1 | 2.02 | 122 | 1.77 |
| ANKRD54 (ankyrin repeat domain 54) | 2 | 0.0472 | 82.8 | -0.451 |
| ANKRD54 (ankyrin repeat domain 54) | 3 | 1.24 | 107 | 0.301 |
| EIF1B (eukaryotic translation initiation factor 1B) | 1 | -0.75 | 67 | -1.15 |
| EIF1B (eukaryotic translation initiation factor 1B) | 2 | 0.853 | 98.9 | 0.161 |
| EIF1B (eukaryotic translation initiation factor 1B) | 3 | 0.235 | 86.6 | -0.0895 |
| OR10Q1 (olfactory receptor family 10 subfamily Q member 1) | 1 | 3.01 (active) | 142 | 2.15 |
| OR10Q1 (olfactory receptor family 10 subfamily Q member 1) | 2 | -2.51 | 32 | -1.95 |
| OR10Q1 (olfactory receptor family 10 subfamily Q member 1) | 3 | 1.77 | 117 | 1.25 |
| NBPF1 (NBPF member 1) | 1 | 0.382 | 89.5 | 0.855 |
| NBPF1 (NBPF member 1) | 2 | 0.273 | 87.3 | -0.701 |
| NBPF1 (NBPF member 1) | 3 | -0.43 | 73.3 | 0.329 |
| OR4F3 (olfactory receptor family 4 subfamily F member 3) | 1 | -0.436 | 73.2 | 0.13 |
| OR4F3 (olfactory receptor family 4 subfamily F member 3) | 2 | -0.245 | 77 | -0.83 |
| OR4F3 (olfactory receptor family 4 subfamily F member 3) | 3 | 0.102 | 83.9 | -0.271 |
| PRELID1 (PRELI domain containing 1) | 1 | -0.626 | 69.4 | 0.72 |
| PRELID1 (PRELI domain containing 1) | 2 | -0.642 | 69.1 | -0.511 |
| PRELID1 (PRELI domain containing 1) | 3 | -0.054 | 80.8 | 0.42 |
| AMY2B (amylase alpha 2B) | 1 | 1.35 | 109 | 1.83 |
| AMY2B (amylase alpha 2B) | 2 | 0.661 | 95 | 0.0895 |
| AMY2B (amylase alpha 2B) | 3 | -1.12 | 59.7 | -1.03 |
| EPN1 (epsin 1) | 1 | -0.878 | 64.4 | -0.821 |
| EPN1 (epsin 1) | 2 | -0.785 | 66.3 | -0.421 |
| EPN1 (epsin 1) | 3 | -3.08 | 20.5 | -2.37 |
| ANGEL2 (angel homolog 2) | 1 | 2.3 | 128 | 3.71 |
| ANGEL2 (angel homolog 2) | 2 | -0.0139 | 81.6 | -0.279 |
| ANGEL2 (angel homolog 2) | 3 | -1.57 | 50.6 | -2.31 |
| SPRR3 (small proline rich protein 3) | 1 | 1.91 | 120 | 1.37 |
| SPRR3 (small proline rich protein 3) | 2 | 1.26 | 107 | 0.853 |
| SPRR3 (small proline rich protein 3) | 3 | 1.3 | 108 | 0.771 |
| GNPDA2 (glucosamine-6-phosphate deaminase 2) | 1 | -1.6 | 50.1 | -1.61 |
| GNPDA2 (glucosamine-6-phosphate deaminase 2) | 2 | -0.76 | 66.8 | -0.57 |
| GNPDA2 (glucosamine-6-phosphate deaminase 2) | 3 | 0.0517 | 82.9 | -0.497 |
| TIGD7 (tigger transposable element derived 7) | 1 | 0.0236 | 82.4 | -0.534 |
| TIGD7 (tigger transposable element derived 7) | 2 | -1.88 | 44.5 | -2.44 |
| TIGD7 (tigger transposable element derived 7) | 3 | -0.549 | 71 | -1.12 |
| ICE2P2 | 1 | 0.659 | 95 | 1.49 |
| ICE2P2 | 2 | -0.645 | 69.1 | 0.0463 |
| ICE2P2 | 3 | -0.635 | 69.3 | -0.532 |
| SCPEP1 (serine carboxypeptidase 1) | 1 | -0.41 | 73.7 | -0.143 |
| SCPEP1 (serine carboxypeptidase 1) | 2 | -1.28 | 56.5 | -1.47 |
| SCPEP1 (serine carboxypeptidase 1) | 3 | -2.46 | 32.9 | -3.91 |
| ULK1 (unc-51 like autophagy activating kinase 1) | 1 | 0.149 | 84.8 | -0.0559 |
| ULK1 (unc-51 like autophagy activating kinase 1) | 2 | -2.29 | 36.3 | -3.37 |
| ULK1 (unc-51 like autophagy activating kinase 1) | 3 | 0.68 | 95.4 | 0.176 |
| GDF7 (growth differentiation factor 7) | 1 | 0.574 | 93.3 | 0.991 |
| GDF7 (growth differentiation factor 7) | 2 | -1.78 | 46.4 | -1.93 |
| GDF7 (growth differentiation factor 7) | 3 | 0.266 | 87.2 | 1.36 |
| PHOX2A (paired like homeobox 2A) | 1 | 0.512 | 92.1 | 0.137 |
| PHOX2A (paired like homeobox 2A) | 2 | 2 | 122 | 1.64 |
| PHOX2A (paired like homeobox 2A) | 3 | 0.652 | 94.9 | -0.541 |
| GOLPH3L (golgi phosphoprotein 3 like) | 1 | 0.00958 | 82.1 | -0.642 |
| GOLPH3L (golgi phosphoprotein 3 like) | 2 | -1.45 | 53 | -1.81 |
| GOLPH3L (golgi phosphoprotein 3 like) | 3 | -0.993 | 62.1 | -0.914 |
| SIDT2 (SID1 transmembrane family member 2) | 1 | -0.411 | 73.7 | -0.442 |
| SIDT2 (SID1 transmembrane family member 2) | 2 | 0.378 | 89.4 | -0.127 |
| SIDT2 (SID1 transmembrane family member 2) | 3 | 2.87 | 139 | 2.34 |
| LIX1L (limb and CNS expressed 1 like) | 1 | -0.234 | 77.2 | 0.395 |
| LIX1L (limb and CNS expressed 1 like) | 2 | -2.09 | 40.2 | -2.57 |
| LIX1L (limb and CNS expressed 1 like) | 3 | -0.111 | 79.7 | -0.788 |
| COL24A1 (collagen type XXIV alpha 1 chain) | 1 | 1.72 | 116 | 1.91 |
| COL24A1 (collagen type XXIV alpha 1 chain) | 2 | 0.226 | 86.4 | 0.315 |
| COL24A1 (collagen type XXIV alpha 1 chain) | 3 | -0.226 | 77.4 | -0.377 |
| PMCH (pro-melanin concentrating hormone) | 1 | 1.63 | 114 | 0.896 |
| PMCH (pro-melanin concentrating hormone) | 2 | -2.31 | 36 | -1.22 |
| PMCH (pro-melanin concentrating hormone) | 3 | 0.723 | 96.3 | 0.135 |
| C10orf55 (chromosome 10 putative open reading frame 55) | 1 | -1.46 | 52.8 | -0.149 |
| C10orf55 (chromosome 10 putative open reading frame 55) | 2 | -0.611 | 69.7 | 0.17 |
| C10orf55 (chromosome 10 putative open reading frame 55) | 3 | -0.518 | 71.6 | -0.204 |

Taken from above.
Entry of TIGD7 (tigger transposable element derived 7) #1 under “total luciferase, % of control”: 82.4
For “luciferase per cell, z-score”, GNPDA2 (glucosamine-6-phosphate deaminase 2) #3 is entered as -0.497
AMY2B (amylase alpha 2B) #3, luciferase per cell, z-score: -1.03
Value for SCPEP1 (serine carboxypeptidase 1) #1 under “total luciferase, z-score”: -0.41
Entry for ICE2P2 #2 under “total luciferase, z-score”: -0.645
For “total luciferase, z-score”, OR10Q1 (olfactory receptor family 10 subfamily Q member 1) #1 has 3.01 (active)
